Measured data: PubChem BioAssay AID1053208 (Peter MacCallum Cancer Centre, 2014)
The deposit covers about 17,000 reagents; shown is an unselected part. 788 of them (4.7%) count as active. 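Calls rest on z-score classes alone; an extra cut-off of viability at most 70% of control was not applied to them.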 Not all columns of the deposit are shown. No sequences are given here.

- Assay: 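Genes whose silencing cuts survival of bone tumour cells only with doxorubicin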 (primary screen)
- System: mouse osteosarcoma cells, early-passage culture from an engineered mouse model of fibroblastic bone tumour
- Reagents: siRNA pool against mouse genes, 40 nM
- Timing: about 120 h (48 h before drug, then 72 h with drug)
- Challenge: doxorubicin 100 nM for 72 h, roughly 30-40% inhibitory dose
- Read-out: 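Luminescent ATP signal taken as viability with or without 100 nM doxorubicin for 72 h; mean of two wells set against non-targeting siRNA and turned into robust z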
- Scale: viability z-score with doxorubicin: higher = more viable cells under doxorubicin; viability z-score without drug: higher = more viable cells with knock-down alone
- Hit rule: 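a pool counts as active when its viability z-score with doxorubicin is -2 or below and its z-score without drug lies between -2 and 2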

| gene | combined z-score class | viability z-score with doxorubicin | viability z-score without drug | outcome |
| --- | --- | --- | --- | --- |
| Flnc | no change with or without drug | 0.22 | 0.51 | inactive |
| Rnf183 | no change with or without drug | -0.67 | -0.84 | inactive |
| Jph4 | no change with or without drug | 0.11 | -1.18 | inactive |
| Sema7a | no change with or without drug | 0 | -0.51 | inactive |
| Or2b2b | no change with or without drug | -1.8 | -1.18 | inactive |
| Prss37 | no change with or without drug | 0.45 | 1.18 | inactive |
| Ankrd7 | no change with or without drug | -1.12 | -0.34 | inactive |
| Ugt3a1 | no change with or without drug | 0.45 | 1.18 | inactive |
| Galnt2 | no change with or without drug | -0.67 | -1.18 | inactive |
| Cdyl | no change with or without drug | -0.45 | 0.17 | inactive |
| Angpt2 | low cell count without drug only | -1.35 | -2.19 | inactive |
| Trpm1 | no change with or without drug | 0.45 | 1.35 | inactive |
| 4833416I09RIK | no change with or without drug | -0.67 | -0.67 | inactive |
| Fmn1 | no change with or without drug | 0.9 | 0.84 | inactive |
| Hacd4 | no change with or without drug | -0.9 | -0.51 | inactive |
| Slc5a9 | no change with or without drug | 0.22 | 0.17 | inactive |
| Mnmip1 | no change with or without drug | -1.12 | -0.84 | inactive |

Looked up above:
Angpt2, viability z-score without drug → -2.19
Ankrd7, outcome → inactive
For “combined z-score class”, Flnc shows no change with or without drug
For “combined z-score class”, Or2b2b shows no change with or without drug
For “viability z-score with doxorubicin”, Sema7a is entered as 0
Entry of Jph4 in “combined z-score class”: no change with or without drug

The list goes on.
| gene | combined z-score class | viability z-score with doxorubicin | viability z-score without drug | outcome |
| --- | --- | --- | --- | --- |
| Or6c207 | high cell count with and without drug | 2.02 | 2.7 | inactive |
| Fbxo21 | no change with or without drug | -0.11 | 0.17 | inactive |
| Eif2s3y | no change with or without drug | 0.34 | 0.51 | inactive |
| Zfp418 | no change with or without drug | -1.01 | -1.35 | inactive |
| Etl4 | no change with or without drug | 0.34 | 0.84 | inactive |
| Cdk5r2 | high cell count with doxorubicin only | 2.02 | 0.51 | inactive |
| Adad1 | no change with or without drug | -0.45 | -0.84 | inactive |
| Hsd17b14 | no change with or without drug | -1.24 | -0.51 | inactive |
| Bbs5 | no change with or without drug | 0.45 | 0.51 | inactive |
| Sdf2 | high cell count with doxorubicin only | 3.93 | 1.85 | inactive |
| Dut | no change with or without drug | 1.24 | 0.67 | inactive |
| Frg1 | no change with or without drug | -0.79 | 0.51 | inactive |
| Ncapd3 | no change with or without drug | 0 | 0.34 | inactive |
| Akr1b7 | no change with or without drug | 0.34 | 0 | inactive |
| Mbd3l2 | low cell count without drug only | -0.45 | -2.53 | inactive |
| Snx30 | no change with or without drug | 1.35 | 0.84 | inactive |
| Or2n1 | no change with or without drug | -0.11 | 0.84 | inactive |
| Eml3 | no change with or without drug | 0.11 | -0.84 | inactive |
| Tmem179 | no change with or without drug | -0.11 | -0.51 | inactive |
| Mep1a | no change with or without drug | -1.01 | -0.51 | inactive |
| Znrf1 | no change with or without drug | 1.01 | 0.17 | inactive |
| Mrpl49 | no change with or without drug | 0.67 | -1.85 | inactive |
| Mbnl3 | high cell count with doxorubicin only | 2.02 | 1.52 | inactive |
| Adck5 | no change with or without drug | -0.34 | 1.69 | inactive |
| Epb41l5 | no change with or without drug | 0.79 | -0.51 | inactive |
| Rars2 | high cell count with doxorubicin only | 3.04 | 1.52 | inactive |
| Ptprn2 | no change with or without drug | -1.57 | -0.51 | inactive |
| Pdia2 | no change with or without drug | 0.22 | -0.17 | inactive |
| Nudt4 | no change with or without drug | -0.45 | -1.18 | inactive |
| Alg2 | no change with or without drug | 0.22 | 0.51 | inactive |
| Atg14 | no change with or without drug | -0.9 | 0.51 | inactive |
| Rnf40 | no change with or without drug | 0 | -0.51 | inactive |
| Med21 | no change with or without drug | 0.11 | 0.51 | inactive |
